Results are given in words; binding and its absence hold for the method and conditions named. Some entries that bind do so weakly or less than the wild type.
Biological target: transferrin (human, UniProt P02787 20-698)
Experiment: SPR

By UniProt entry, the sequences of proteins in these tests, tags left out. Residues count along the entry.
UniProt P02787, residues 20-698: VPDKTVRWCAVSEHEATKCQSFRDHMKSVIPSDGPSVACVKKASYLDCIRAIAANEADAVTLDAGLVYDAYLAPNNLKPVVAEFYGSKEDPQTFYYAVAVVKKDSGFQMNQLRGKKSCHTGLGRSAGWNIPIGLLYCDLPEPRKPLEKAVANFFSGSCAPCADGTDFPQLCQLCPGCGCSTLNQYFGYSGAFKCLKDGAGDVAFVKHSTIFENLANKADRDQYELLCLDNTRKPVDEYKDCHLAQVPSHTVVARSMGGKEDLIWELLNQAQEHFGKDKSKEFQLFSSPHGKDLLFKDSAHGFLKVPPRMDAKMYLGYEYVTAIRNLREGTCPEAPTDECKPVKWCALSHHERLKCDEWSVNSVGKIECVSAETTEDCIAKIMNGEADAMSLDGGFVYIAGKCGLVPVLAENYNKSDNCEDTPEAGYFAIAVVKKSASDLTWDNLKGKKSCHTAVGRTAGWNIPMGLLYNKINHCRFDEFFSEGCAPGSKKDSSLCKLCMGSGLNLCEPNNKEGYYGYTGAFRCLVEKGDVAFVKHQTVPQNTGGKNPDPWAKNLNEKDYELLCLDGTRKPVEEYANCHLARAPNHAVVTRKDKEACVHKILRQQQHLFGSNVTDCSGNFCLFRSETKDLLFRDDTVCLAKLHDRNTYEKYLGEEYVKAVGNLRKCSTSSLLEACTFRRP

Row | Binder | binding
1 | CD14 mutant (D44A, S46A and Q50A) (protein, UniProt P08571 20-345) TTPEPCELDDEDFRCVCNFSEPQPAWAEAFACVSAVEVEIHAGGLNLEPFLKRVDADADPRQYADTVKALRVRRLTVGAAQVPAQLLVGALRVLAYSRLKELTLEDLKITGTMPPLPLEATGLALSSLRLRNVSWATGRSWLAELQQWLKPGLKVLSIAQAHSPAFSCEQVRAFPALTSLDLSDNPGLGERGLMAALCPHKFPAIQNLALRNTGMETPTGVCAALAAAGVQPHSLDLSHNSLRATVNPSAPRCMWSSALNSLNLSFAGLEQVPKGLPAKLRVLDLSCNRLNRAPQPDELPEVDNLTLDGNPFLVPGTALPHEGSMN | binds weakly
2 | human CD14 (natural protein, UniProt P08571 20-345, looked up) TTPEPCELDDEDFRCVCNFSEPQPDWSEAFQCVSAVEVEIHAGGLNLEPFLKRVDADADPRQYADTVKALRVRRLTVGAAQVPAQLLVGALRVLAYSRLKELTLEDLKITGTMPPLPLEATGLALSSLRLRNVSWATGRSWLAELQQWLKPGLKVLSIAQAHSPAFSCEQVRAFPALTSLDLSDNPGLGERGLMAALCPHKFPAIQNLALRNTGMETPTGVCAALAAAGVQPHSLDLSHNSLRATVNPSAPRCMWSSALNSLNLSFAGLEQVPKGLPAKLRVLDLSCNRLNRAPQPDELPEVDNLTLDGNPFLVPGTALPHEGSMN | binds
